Taken from: PubChem BioAssay AID1159584 (Peter MacCallum Cancer Centre, 2016)
Here is one part, drawn at random, of about 18,000 reagents tested. Reagents against one gene are numbered here. Reagent sequences are not shown. Not stated in the record: the amount of reagent, the time to read-out.

- Aim: 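Knock-downs that harm CDH1-null cells more than parental MCF10A cells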 (primary screen)
- System: human MCF10A breast epithelial cells, parental and CDH1-null
- Reagent: siRNA against human genes
- Measurement: 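Cell viability by CellTiter-Glo ATP luminescence, each line scaled to the mean of mock wells across plates, then CDH1-null over parental ratio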
- Direction: CDH1-null / parental viability ratio: higher = CDH1-null cells survive relatively better than parental; CDH1-null viability vs mock: higher = more viable CDH1-null cells; parental viability vs mock: higher = more viable parental cells

| gene knocked down | reagent no. | CDH1-null / parental viability ratio | CDH1-null viability vs mock (fraction of mock) | parental viability vs mock (fraction of mock) |
| --- | --- | --- | --- | --- |
| G0S2 (GeneID 50486) | 1 | 0.94 | 0.68 | 0.72 |
| STRN3 (GeneID 29966) | 1 | 0.91 | 0.64 | 0.7 |
| AKAP17A (GeneID 8227) | 1 | 1 | 0.76 | 0.76 |
| SNRNP70 (GeneID 6625) | 1 | 0.95 | 0.63 | 0.66 |
| DAO (GeneID 1610) | 1 | 1.11 | 0.71 | 0.64 |
| CRYBB1 (GeneID 1414) | 1 | 1.05 | 0.59 | 0.56 |
| NHLRC1 (GeneID 378884) | 1 | 0.83 | 0.44 | 0.53 |
| MYL9 (GeneID 10398) | 1 | 1.29 | 1.06 | 0.82 |
| ANKRD37 (GeneID 353322) | 1 | 0.86 | 0.65 | 0.76 |
| RANBP2 (GeneID 5903) | 1 | 1.2 | 0.9 | 0.75 |
| NPAS1 (GeneID 4861) | 1 | 0.96 | 1 | 1.04 |
| SGCD (GeneID 6444) | 1 | 1.51 | 0.92 | 0.61 |
| ENTREP3 (GeneID 10712) | 1 | 0.87 | 0.82 | 0.94 |
| NBPF14 (GeneID 25832) | 1 | 0.96 | 0.75 | 0.78 |
| ELAVL3 (GeneID 1995) | 1 | 0.76 | 0.29 | 0.38 |
| SYNPO2L (GeneID 79933) | 1 | 0.82 | 0.59 | 0.72 |
| TBC1D22A (GeneID 25771) | 1 | 1.2 | 1.12 | 0.93 |
| OR8K5 (GeneID 219453) | 1 | 0.61 | 0.43 | 0.71 |
| LRFN2 (GeneID 57497) | 1 | 0.8 | 0.67 | 0.84 |
| ZNRF1 (GeneID 84937) | 1 | 0.89 | 0.68 | 0.76 |
| ABCE1 (GeneID 6059) | 1 | 0.9 | 0.7 | 0.78 |
| PHEX (GeneID 5251) | 1 | 1.09 | 0.83 | 0.76 |
| SPANXB1 (GeneID 728695) | 1 | 1.26 | 0.86 | 0.68 |
| SPANXB1 (GeneID 728695) | 2 | 1.22 | 1.01 | 0.83 |
| CLCNKA (GeneID 1187) | 1 | 1.05 | 1.02 | 0.97 |
| SSX2 (GeneID 6757) | 1 | 0.83 | 0.72 | 0.87 |
| NIBAN2 (GeneID 64855) | 1 | 0.97 | 0.72 | 0.74 |
| KARS1 (GeneID 3735) | 1 | 1.39 | 0.93 | 0.67 |
| PFN3 (GeneID 345456) | 1 | 1.28 | 0.82 | 0.64 |
| NOMO2 (GeneID 283820) | 1 | 1.1 | 1.1 | 1 |
| NXNL2 (GeneID 158046) | 1 | 1.16 | 0.74 | 0.64 |

8 of these entries, reformatted:
STRN3 (GeneID 29966) | CDH1-null / parental viability ratio: 0.91; CDH1-null viability vs mock (fraction of mock): 0.64; parental viability vs mock (fraction of mock): 0.7
AKAP17A (GeneID 8227) | CDH1-null / parental viability ratio: 1; CDH1-null viability vs mock (fraction of mock): 0.76; parental viability vs mock (fraction of mock): 0.76
SNRNP70 (GeneID 6625) | CDH1-null / parental viability ratio: 0.95; CDH1-null viability vs mock (fraction of mock): 0.63; parental viability vs mock (fraction of mock): 0.66
DAO (GeneID 1610) | CDH1-null / parental viability ratio: 1.11; CDH1-null viability vs mock (fraction of mock): 0.71; parental viability vs mock (fraction of mock): 0.64
CRYBB1 (GeneID 1414) | CDH1-null / parental viability ratio: 1.05; CDH1-null viability vs mock (fraction of mock): 0.59; parental viability vs mock (fraction of mock): 0.56
NHLRC1 (GeneID 378884) | CDH1-null / parental viability ratio: 0.83; CDH1-null viability vs mock (fraction of mock): 0.44; parental viability vs mock (fraction of mock): 0.53
MYL9 (GeneID 10398) | CDH1-null / parental viability ratio: 1.29; CDH1-null viability vs mock (fraction of mock): 1.06; parental viability vs mock (fraction of mock): 0.82
ANKRD37 (GeneID 353322) | CDH1-null / parental viability ratio: 0.86; CDH1-null viability vs mock (fraction of mock): 0.65; parental viability vs mock (fraction of mock): 0.76

Further entries follow.
| gene knocked down | reagent no. | CDH1-null / parental viability ratio | CDH1-null viability vs mock (fraction of mock) | parental viability vs mock (fraction of mock) |
| --- | --- | --- | --- | --- |
| RNF146 (GeneID 81847) | 1 | 0.85 | 0.66 | 0.78 |
| VTA1 (GeneID 51534) | 1 | 0.99 | 0.76 | 0.77 |
| HLF (GeneID 3131) | 1 | 1.03 | 0.68 | 0.66 |
| KCNQ4 (GeneID 9132) | 1 | 1.56 | 0.84 | 0.54 |
| C17orf67 (GeneID 339210) | 1 | 1.54 | 0.97 | 0.63 |
| F2RL3 (GeneID 9002) | 1 | 1.63 | 0.78 | 0.48 |
| PHF14 (GeneID 9678) | 1 | 0.92 | 0.44 | 0.48 |
| ZNG1C (GeneID 445571) | 1 | 1.04 | 0.55 | 0.53 |
| UNK (GeneID 85451) | 1 | 0.83 | 0.7 | 0.84 |
| ADA2 (GeneID 51816) | 1 | 0.94 | 0.85 | 0.9 |
| ZC3H11D (GeneID 160419) | 1 | 0.99 | 0.79 | 0.8 |
| CDC42EP4 (GeneID 23580) | 1 | 0.77 | 0.6 | 0.78 |
| POU5F1 (GeneID 5460) | 1 | 0.87 | 0.62 | 0.71 |
| TBX19 (GeneID 9095) | 1 | 0.96 | 0.86 | 0.9 |
| FGD4 (GeneID 121512) | 1 | 0.82 | 0.62 | 0.76 |
| TSPAN2 (GeneID 10100) | 1 | 0.98 | 0.87 | 0.89 |
| ZNF154 (GeneID 7710) | 1 | 1.09 | 0.88 | 0.81 |
| POLR2E (GeneID 5434) | 1 | 1.07 | 0.45 | 0.42 |
| PTPRT (GeneID 11122) | 1 | 1.26 | 0.88 | 0.7 |
| CARS2 (GeneID 79587) | 1 | 1.11 | 0.94 | 0.85 |
| ADNP2 (GeneID 22850) | 1 | 1.5 | 0.57 | 0.38 |
| CRYZ (GeneID 1429) | 1 | 1.09 | 0.85 | 0.78 |
| TSEN54 (GeneID 283989) | 1 | 0.91 | 0.6 | 0.66 |
| UQCR10 (GeneID 29796) | 1 | 1.13 | 1.02 | 0.9 |
| LINC01600 (GeneID 154386) | 1 | 0.94 | 0.96 | 1.02 |
| CYRIB (GeneID 51571) | 1 | 0.79 | 0.62 | 0.78 |
| NDUFS7 (GeneID 374291) | 1 | 0.79 | 0.76 | 0.96 |
| TATDN2 (GeneID 9797) | 1 | 1.19 | 1.08 | 0.91 |
| GALK2 (GeneID 2585) | 1 | 0.96 | 0.65 | 0.68 |
| NPR1 (GeneID 4881) | 1 | 0.82 | 0.74 | 0.9 |
| PTPN14 (GeneID 5784) | 1 | 1.4 | 1.02 | 0.73 |
| ZNF770 (GeneID 54989) | 1 | 1.03 | 0.66 | 0.64 |
| PHTF1 (GeneID 10745) | 1 | 1.04 | 0.74 | 0.71 |
| OR14C36 (GeneID 127066) | 1 | 0.87 | 0.71 | 0.82 |
| CYCS (GeneID 54205) | 1 | 0.75 | 0.57 | 0.76 |
| ARHGAP15 (GeneID 55843) | 1 | 0.98 | 0.59 | 0.6 |
| ZNF785 (GeneID 146540) | 1 | 1.18 | 0.97 | 0.82 |
